This is one part of the list. Shown are side measurements of this screen, not its main read-out; they come without a call. Most of these compounds were active or inconclusive in the main read-out, so they are no random draw. The note in brackets gives the kind of curve behind each potency; many fits are weak.
Assay: qHTS Assay for Lipid Storage Modulators in Drosophila S3 Cells;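 as to cell number change: cells counted by Cell Tracker Red CMTPX staining in the red channel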
Conditions: BODIPY lipid droplet fluorescence, 18-24 h; for cell number change: measured here: cell count max response, cells fed with added oleic acid
How it was run: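 Drosophila S3 cells loaded with oleic acid (400 uM, as added) and compounds at several concentrations; lipid droplets imaged by 488-nm laser-scanning cytometry, 500–530 nm intensity and object ratio to cell channel. Percent activity normalized to 20 uM Triacsin C.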

[1] = measured here: cell number channel AC50, cells fed with added oleic acid
[2] = measured here: lipid fluorescence (Fed channel) AC50, cells fed with added oleic acid

Structure (SMILES)	cell number change	AC50 [1]	AC50 [2]
COC(=O)Cn1cnc2c(cnn2-c2ccc(OC)cc2)c1=O	-12.6%	–	–
O=C(CN1C(=O)CSc2ccccc21)N/N=C/c1ccco1	41.3%	11.6 µM [rising, partial curve]	–
CC(=O)Nc1cccc(S(C)(=O)=O)c1	34.8%	11.6 µM [rising, partial curve]	11.6 µM [rising, partial curve, poor fit]
C/C(=N\OCC(=O)Nc1ccccc1Br)c1cccs1	66.3%	5.8 µM [rising, full curve, poor fit]	–
O=C(COc1ccccc1[N+](=O)[O-])N1CCN(S(=O)(=O)c2ccccc2)CC1	-13.4%	–	6.51 µM [falling, single point]
Cc1ccccc1OCc1nnc(SCC(=O)Nc2c(C)n(C)n(-c3ccccc3)c2=O)n1-c1ccccc1	10.5%	0.82 µM [falling, single point]	1.16 µM [falling, single point]
COc1ccc(-n2cc(C(=O)c3ccc4ccccc4c3O)cn2)cc1	–	–	0.82 µM [rising, single point]
Cc1ccccc1C(=O)OC1OC(=O)C(Cl)=C1Nc1ccc(C(=O)O)cc1 (centres undefined)	-28.5%	–	–
O=C(c1cc2cc([N+](=O)[O-])ccc2oc1=O)n1cccn1	-47.5%	3.26 µM [falling, partial curve]	2.06 µM [falling, partial curve]
C=CC(COCc1ccccc1)N(Cc1ccccc1)S(=O)(=O)c1ccccc1Br (centres undefined)	18.6%	–	0.0291 µM [rising, full curve, poor fit]
COc1cc2c(cc1OC)C(C)N(C(=O)c1sccc1C)CC2 (centres undefined)	7.37%	–	20.6 µM [rising, single point]
CCOc1ccc(-c2cc(N)n(S(=O)(=O)c3ccc(OC)cc3)n2)cc1	-4.35%	–	–
C=CCn1c(SCCOc2ccc(OC)cc2)nnc1C(C)NC(=O)c1ccc(OC)cc1 (centres undefined)	-25.9%	0.82 µM [falling, full curve, poor fit]	–
COc1cc(C(=O)/C=C/c2cccnc2)c([N+](=O)[O-])cc1OC	-51.9%	29.1 µM [falling, partial curve]	32.6 µM [rising, single point]
O=C(COC(=O)Cc1cccs1)Nc1ccc(F)c(F)c1F	-21.5%	0.13 µM [falling, full curve, poor fit]	1.46 µM [falling, partial curve]
O=C(CC1C(=O)NCCN1Cc1ccccc1F)NC1CCCCCC1 (centres undefined)	-4.11%	–	18.4 µM [falling, single point]
CCC1CCCCN1CC(C)(C)NS(=O)(=O)c1ccccc1 (centres undefined)	-0.585%	0.461 µM [falling, single point]	–
COc1ccccc1-c1cc(C(F)(F)F)nc(N2CCCC2)n1	-24.7%	–	29.1 µM [falling, single point]
Cc1ccc(OCCNS(=O)(=O)c2ccc(N3CCCC3=O)cc2)cc1	-25.9%	–	32.6 µM [falling, single point]
CN1C(C(=O)Nc2ccc(OC(F)(F)F)cc2)=CC(c2ccco2)=NS1(=O)=O	-69%	29.1 µM [falling, single point]	29.1 µM [falling, single point]

Looked up above:
AC50 [2], C=CC(COCc1ccccc1)N(Cc1ccccc1)S(=O)(=O)c1ccccc1Br (centres undefined) is entered as 0.0291 µM [rising, full curve, poor fit]
AC50 [2], COc1ccccc1-c1cc(C(F)(F)F)nc(N2CCCC2)n1 is entered as 29.1 µM [falling, single point]

(listing goes on)

Structure (SMILES)	cell number change	AC50 [1]	AC50 [2]
COc1ccccc1OCc1ccc(C(=O)NN)cc1	108%	2.06 µM [rising, partial curve, poor fit]	2.59 µM [rising, partial curve]
COc1ccc(NC(=O)c2ccc3ccccc3n2)cc1S(=O)(=O)Nc1ccccc1Cl	-21.6%	–	0.92 µM [rising, partial curve]
COc1ccc(C(=O)NNC(=O)CSc2nnc(COc3ccccc3)n2C)cc1	-12.2%	0.58 µM [falling, partial curve, poor fit]	–
CCOC(=O)CSc1nnc(NC(=O)c2cccc(S(=O)(=O)N3CCCC3)c2)s1	-184%	23.1 µM [falling, partial curve]	6.51 µM [falling, single point]
COC(=O)C1=C(C(=O)OC)SC2(S1)C(C(=O)OC)=C(C(=O)OC)SC1=C2c2cc(C)cc(C)c2NC1(C)C	-10.4%	–	–
c1ccc(-c2cc(-c3ccncc3)nc3ccc4ccccc4c23)cc1	-11.6%	0.13 µM [falling, full curve, poor fit]	0.146 µM [falling, full curve]
CCOC(=O)Cn1cc(Cl)cc(C(=O)Nc2ccccc2)c1=O	20.7%	–	6.51 µM [rising, partial curve]
O=C(CSc1nncc(=O)[nH]1)NC1CCCCC1	-7.83%	–	6.51 µM [falling, single point]
COc1ccc(CNc2ncnc3cc(Cl)ccc23)cc1	-27.1%	–	29.1 µM [falling, single point]
CC(=O)Nc1ccc(NC(=O)CC23CC4CC(CC(C4)C2)C3)cc1	2.56%	–	–
O=C(CN1C(=O)CSc2ncccc21)N1CCOCC1	-36.5%	3.66 µM [falling, full curve]	3.66 µM [falling, full curve]
CCOc1ccccc1CN1CCC(n2nccc2NC(=O)CCCc2ccccc2)CC1	-7.65%	0.103 µM [falling, full curve, poor fit]	29.1 µM [rising, single point]
CSCC[C@H](NC(=O)c1ccc(Cl)c([N+](=O)[O-])c1)c1nc2ccccc2[nH]1	-4.35%	–	16.4 µM [falling, single point]
COc1cc(C#N)ccc1OCC(=O)Nc1ccc(C)c(S(=O)(=O)N2CCOCC2)c1	-10.8%	0.116 µM [falling, full curve, poor fit]	–
Cc1ccc2cccc(NS(=O)(=O)c3ccccc3)c2n1	6.49%	–	–
Cc1ccc2c(C)c(C(=O)N3CCN(C4CCS(=O)(=O)C4)CC3)oc2c1C (centres undefined)	-5.57%	–	0.731 µM [falling, single point]
CCN1/C(=C/C=C/c2sc3ccccc3[n+]2CC)Sc2ccccc21	-94.3%	5.17 µM [falling, full curve]	0.82 µM [falling, full curve]
Cc1ccc(C2=NNC(c3ccc(Cl)cc3)=Nc3ccccc32)o1	12.3%	–	1.16 µM [falling, single point]
Nc1cc2c(cc1[N+](=O)[O-])OCCO2	-32%	13 µM [falling, single point]	–
Cc1cccc(C2(c3cccc(C)c3)CC2C(=O)Nc2ccc([N+](=O)[O-])cc2O)c1 (centres undefined)	-41.1%	20.6 µM [falling, single point]	18.4 µM [falling, single point]

Molecules shown so far that contain four or more nitrogen atoms:
Structure (SMILES)	cell number change	AC50 [1]	AC50 [2]
COC(=O)Cn1cnc2c(cnn2-c2ccc(OC)cc2)c1=O	-12.6%	–	–
Cc1ccccc1OCc1nnc(SCC(=O)Nc2c(C)n(C)n(-c3ccccc3)c2=O)n1-c1ccccc1	10.5%	0.82 µM [falling, single point]	1.16 µM [falling, single point]
C=CCn1c(SCCOc2ccc(OC)cc2)nnc1C(C)NC(=O)c1ccc(OC)cc1 (centres undefined)	-25.9%	0.82 µM [falling, full curve, poor fit]	–
COc1ccc(C(=O)NNC(=O)CSc2nnc(COc3ccccc3)n2C)cc1	-12.2%	0.58 µM [falling, partial curve, poor fit]	–
CCOC(=O)CSc1nnc(NC(=O)c2cccc(S(=O)(=O)N3CCCC3)c2)s1	-184%	23.1 µM [falling, partial curve]	6.51 µM [falling, single point]
O=C(CSc1nncc(=O)[nH]1)NC1CCCCC1	-7.83%	–	6.51 µM [falling, single point]
CCOc1ccccc1CN1CCC(n2nccc2NC(=O)CCCc2ccccc2)CC1	-7.65%	0.103 µM [falling, full curve, poor fit]	29.1 µM [rising, single point]
CSCC[C@H](NC(=O)c1ccc(Cl)c([N+](=O)[O-])c1)c1nc2ccccc2[nH]1	-4.35%	–	16.4 µM [falling, single point]

Next part

Structure (SMILES)	cell number change	AC50 [1]	AC50 [2]
c1ccc2c3c(cc(N4CCOCC4)c2c1)OC1(N2CCOCC2)CCCCC1O3 (centres undefined)	-2.7%	–	–
Cc1ccccc1N(CC(=O)NCCc1ccccc1)C(=O)CCC(=O)Nc1ccccn1	8.56%	–	–
O=C(COc1ccc(F)cc1)Nc1cc(Cl)ccc1-n1cncn1	75%	0.146 µM [rising, full curve]	–
O=C(COc1ccccc1)Nc1ccc2c(c1)C(=O)N(CC1CCCO1)C2=O (centres undefined)	22.7%	0.116 µM [rising, full curve, poor fit]	2.06 µM [rising, partial curve, poor fit]
COP(=O)(OC)c1nc(-c2cccc3ccccc23)oc1NCc1ccccc1	-28.7%	–	14.6 µM [falling, single point]
Cc1cccc(-n2c(O)c(C=NCCCN3CCOCC3)c3ccccc3c2=O)c1	–	0.58 µM [rising, single point]	–
Cc1nc(N2CCN(c3ccccc3)CC2)c2c3c(sc2n1)CCC3	86.4%	2.91 µM [rising, full curve, poor fit]	0.461 µM [rising, full curve]
COC(=O)CCSCC(=O)Nc1nnc(C)s1	-77.3%	13 µM [falling, partial curve, poor fit]	2.91 µM [falling, full curve]
N#CC1=C2Sc3ccccc3N2CCCC1=O	-12.8%	–	6.51 µM [rising, single point]
COc1ccccc1NC(=O)c1sc2ncn(Cc3ccc(C)cc3)c(=O)c2c1C	–	–	0.731 µM [rising, single point]
CCCC(=O)N(Cc1cc(=O)[nH]c2ccccc12)c1ccccc1OC	-1.39%	–	29.1 µM [rising, partial curve]
Cc1nn2cc(-c3ccc(-c4ccccc4)cc3)nc2s1	6.82%	–	–
CCC(=O)Nc1ccc(C(=O)NCc2ccccn2)cc1	45.9%	–	–
COc1ccccc1-n1nnnc1SCC(=O)Nc1oc(C)c2c(C)n[nH]c(=O)c12	73.5%	2.06 µM [rising, full curve]	–
O=c1c2ccccc2nc2c3ccccc3c(NCc3ccccn3)nn12	-38.3%	29.1 µM [falling, single point]	29.1 µM [falling, single point]
COc1ccccc1N1CCN(C(=O)CN2C(=O)c3cccc4cccc(c34)C2=O)CC1	14.3%	–	0.00461 µM [falling, full curve, poor fit]
CCN(CC(=O)Nc1ccc(NC(C)=O)cc1)C(=O)c1cn(-c2ccccc2)nc1-c1cccs1	95.2%	23.1 µM [rising, partial curve, poor fit]	–
O=S1(=O)N=C2CCCCCN2C(c2ccncc2)N1 (centres undefined)	10.2%	–	–
